Measured values: article PMC6946813
These are yes or no findings as the source states them, for the method shown. In cells and extracts the contact can be indirect. Some entries that bind do so weakly or less than the wild type.

Amino acid sequences for entries named in this document (tags omitted).
UniProt Q12905: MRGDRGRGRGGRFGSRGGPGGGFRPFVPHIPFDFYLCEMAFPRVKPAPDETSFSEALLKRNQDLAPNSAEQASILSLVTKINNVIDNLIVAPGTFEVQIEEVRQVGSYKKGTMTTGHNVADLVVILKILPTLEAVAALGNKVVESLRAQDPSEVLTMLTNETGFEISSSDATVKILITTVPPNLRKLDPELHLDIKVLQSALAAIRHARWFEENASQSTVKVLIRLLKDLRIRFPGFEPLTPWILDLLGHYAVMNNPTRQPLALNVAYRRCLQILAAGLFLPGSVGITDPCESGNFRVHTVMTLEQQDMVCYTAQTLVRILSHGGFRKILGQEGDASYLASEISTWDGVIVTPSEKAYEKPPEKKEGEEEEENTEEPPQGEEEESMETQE

Molecular target: T1, NONO (human (endogenous in RKO, Colo320, SW620, LS174T, DLD-1)) (UniProt Q15233)
T1 sequence: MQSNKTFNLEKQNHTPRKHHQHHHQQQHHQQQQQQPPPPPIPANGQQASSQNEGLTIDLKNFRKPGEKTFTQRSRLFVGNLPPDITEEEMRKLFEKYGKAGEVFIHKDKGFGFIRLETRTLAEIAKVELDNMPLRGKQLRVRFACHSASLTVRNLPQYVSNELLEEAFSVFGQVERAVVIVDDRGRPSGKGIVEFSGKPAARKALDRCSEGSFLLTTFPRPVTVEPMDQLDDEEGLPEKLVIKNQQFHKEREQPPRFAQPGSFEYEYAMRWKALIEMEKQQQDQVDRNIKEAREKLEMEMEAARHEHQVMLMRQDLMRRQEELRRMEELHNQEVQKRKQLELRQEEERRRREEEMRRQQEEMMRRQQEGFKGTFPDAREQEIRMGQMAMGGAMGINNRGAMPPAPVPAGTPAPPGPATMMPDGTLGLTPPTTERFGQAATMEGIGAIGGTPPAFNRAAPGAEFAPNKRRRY
Test: co-IP; nuclear lysate (1 mg) of RKO and Colo320 cells, antibody overnight at 4°, Protein G and A DynaBeads, washes with 50 mM Tris-HCl pH 7.4, 200 mM NaCl, 2 mM EDTA, 1% Triton X-100, immunoblot; also in BCL9 knockout RKO clones and in RKO cells treated 2 h with vehicle or verapamil

ILF2 (from UniProt Q12905 1-390) was tested, and the binding was “binds”.
